# This is one part of the list. These are further read-outs of the screen, such as a control signal, another cell line or another target. No call is given for them. The list favours compounds with an active or inconclusive main result. Potencies come from curve fits of mixed quality, noted in brackets.
# Assay: IkB Signaling
# Settings: ABC-DLBCL IkBa-CBG/CBR dual luciferase ratio (green luciferase fused to IkBa over red control in OCI-Ly3 lymphoma cells), 4 h
# Procedure, shortened: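 In this assay, an IκBα–CBG68 fusion accumulates when IKK-driven degradation is blocked; native CBR normalizes for cell number. OCI-Ly3 cells were treated 4 h with compound and doxycycline, then green and red light read after Chroma-Glo addition.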
# [1] = measured here: control luc red channel unless noted
structure (smiles),measurement,setting,value
NC(=O)CSc1nc2c(oc3ccccc32)c(=O)n1-c1ccccc1F,AC50,[1],"0.02 µM [rising, full curve, poor fit]"
COc1cccc(CNC(=O)CSc2ccc(-c3sc(-c4ccccc4)nc3C)nn2)c1,AC50,[1],"25.1 µM [falling, single point]"
CCOc1ccc(OCC)c(NC(=O)C2CCCN(S(=O)(=O)c3ccc4c(c3)oc(=O)n4C)C2)c1 (configuration not stated),AC50,[1],"12.6 µM [falling, partial curve]"
CCOc1nc2ccccc2nc1NS(=O)(=O)c1ccccc1,AC50,[1],"3.98 µM [falling, full curve]"
CC(=O)Nc1ccc(Nc2ncnc3c2c(-c2ccccc2)cn3-c2ccccc2)cc1,AC50,[1],"12.6 µM [falling, partial curve]"
Cc1cc(C)cc(-n2c(SCC(=O)N3CCc4ccccc43)nc3c([nH]c4ccccc43)c2=O)c1,AC50,[1],"39.8 µM [rising, single point]"
Cc1ccc(OC(C)c2nnc(N)s2)cc1Cl (configuration not stated),AC50,[1],"12.6 µM [falling, partial curve]"
CCOc1ccc2nc(N3CCN(C(=O)CS(=O)(=O)c4ccc(F)cc4)CC3)sc2c1,AC50,[1],"31.6 µM [falling, partial curve]"
Cc1ccc(Cl)c2sc(N3CCN(C(=O)C4CC4)CC3)nc12,AC50,[1],"39.8 µM [falling, single point]"
CC1=C/C(=C\c2ccc3c(c2)OCO3)C(=O)S1,AC50,measured here: IkB-luc green channel,"31.6 µM [rising, single point]"
same,AC50,measured here: control luc red channel,"20 µM [falling, partial curve]"
Cc1ccccc1Cn1cc(S(=O)(=O)c2ccc(Cl)cc2)c(=O)c2cc3c(cc21)OCO3,AC50,[1],"7.94 µM [falling, partial curve]"
COc1cccc(N2CCN(C(=O)C3CCCN(S(=O)(=O)c4ccc(Br)s4)C3)CC2)c1 (configuration not stated),AC50,[1],"15.8 µM [falling, partial curve]"
Cc1c(NC(=O)c2nc3ccccc3n(C)c2=O)cccc1[N+](=O)[O-],AC50,[1],"3.16 µM [rising, partial curve]"
CC(=O)N1CCN(c2ccc(Oc3ncnc4sccc34)cc2)CC1,AC50,[1],"20 µM [falling, partial curve, poor fit]"
Cc1ccc(NC(=O)c2ccc(NC(=O)N3CCSc4ncccc43)cc2)cc1Cl,AC50,[1],"7.94 µM [falling, full curve]"
C=CCn1c(SCC(=O)c2cc(C)n(Cc3cccs3)c2C)nnc1-c1ccncc1,AC50,[1],"25.1 µM [falling, partial curve]"
CCCN(C(=O)Cn1ncc2c(=O)oc3ccccc3c21)c1cccc(C)c1,AC50,[1],"12.6 µM [falling, single point]"
CCCCOC(=O)c1ccc(NS(=O)(=O)c2c(C)nc3scc(C)n3c2=O)cc1,AC50,[1],"20 µM [falling, partial curve]"
Cc1ccc(CNC(=O)Cn2ncc3c(C)n(Cc4ccc(Cl)cc4)c(C)c3c2=O)cc1,AC50,[1],"15.8 µM [falling, single point]"
COc1ccccc1Nc1cc(C)nc2nc(-c3ccccc3)nn12,AC50,[1],"25.1 µM [falling, single point]"
Cc1ccc(NC(=O)c2c(N3CCCC3=O)c3cc(C)ccc3n2C)c(C)c1,AC50,[1],"25.1 µM [falling, single point]"
O=C(CCSCCc1ccccn1)Nc1nccs1,AC50,[1],"10 µM [falling, partial curve]"
CCOc1ccc(N(CC)C(=O)c2cc3c(s2)-c2ccccc2OC3)cc1,AC50,[1],"39.8 µM [falling, single point]"
COc1cccc(N2CCN(C(=O)c3nn(C)c4c3CSc3ccc(C)cc3-4)CC2)c1,AC50,[1],"20 µM [falling, single point]"
CCC(=O)N1CCc2cc(CNC(=O)c3ccc(F)cc3)ccc21,AC50,[1],"7.94 µM [rising, partial curve]"
Cc1ccc(-c2nc3sccn3c2Nc2ccc(C)c(C)c2)cc1,AC50,[1],"39.8 µM [falling, single point]"
CCC(C(=O)Nc1cc(F)ccc1F)n1nc(C)c2c(C)n(-c3ccc(C)cc3)nc2c1=O (configuration not stated),AC50,[1],"7.94 µM [falling, full curve]"
CCc1c(O)nc(SCC(=O)Nc2ccc(C)cc2)n(C2CCCCC2)c1=O,AC50,[1],"10 µM [falling, partial curve]"
CCc1ccccc1NC(=O)c1noc2c1CC(C(C)(C)C)CC2 (configuration not stated),AC50,[1],"39.8 µM [falling, single point]"
Cc1cccc(NC(=O)C(=O)NCCc2csc(-c3ccc(F)cc3)n2)c1C,AC50,[1],"3.98 µM [falling, full curve]"
Cc1cc(N2CCCCC2)nc2ccc(NC(=O)CCC(=O)N3CCN(c4ccccc4)CC3)cc12,AC50,[1],"25.1 µM [falling, partial curve]"
O=C(CSCc1ccc(F)cc1)N1CCc2c([nH]c3ccccc23)C1c1ccc(Cl)cc1 (configuration not stated),AC50,[1],"25.1 µM [falling, single point]"
COc1ccc(NC(=O)CN2C(=O)c3cccnc3Sc3ccccc32)cc1OC,AC50,[1],"15.8 µM [falling, partial curve, poor fit]"
Cc1cccc(N2CCN(C(=O)c3ccc(Nc4nc5ccccc5n5nnnc45)cc3)CC2)c1C,AC50,[1],"2 µM [falling, full curve]"
CC1=C(C(=O)Nc2cc(Cl)ccc2C)C(c2cccs2)n2ncnc2N1 (configuration not stated),AC50,[1],"1.26 µM [falling, full curve]"
CC1CCN(C(=S)c2ccccc2O)CC1,AC50,[1],"31.6 µM [falling, single point]"
CCn1c(COc2ccccc2C)nnc1SCC(=O)CC(=O)Nc1ccccc1OC,AC50,[1],"15.8 µM [falling, partial curve]"
Cn1c(=O)cc(SCC(=O)N2CCN(c3ccccc3F)CC2)c2ccccc21,AC50,[1],"25.1 µM [falling, single point]"
CCOc1ccc(NC(=O)CC2C(=O)N(c3cccc(C)c3)C(=O)N2Cc2cccs2)cc1 (configuration not stated),AC50,[1],"31.6 µM [falling, single point]"
CCOc1ccc(CN(CCc2ccc3c(c2)OCO3)Cc2cc(OC)c(OC)cc2OC)cc1,AC50,[1],"12.6 µM [falling, partial curve]"
COc1cc(NC(=O)CCc2c(C)nn(-c3ccc(N4CCCCC4)nn3)c2C)cc(OC)c1OC,AC50,[1],"15.8 µM [falling, partial curve]"

# Reprinted at random: 2 records from the list.
structure (smiles),measurement,setting,value
O=C(CSCc1ccc(F)cc1)N1CCc2c([nH]c3ccccc23)C1c1ccc(Cl)cc1 (configuration not stated),AC50,[1],"25.1 µM [falling, single point]"
CCOc1ccc(N(CC)C(=O)c2cc3c(s2)-c2ccccc2OC3)cc1,AC50,[1],"39.8 µM [falling, single point]"

# Source: PubChem BioAssay AID445 (National Center for Advancing Translational Sciences (NCATS), 2006)
